From paper PMC12507517
Results are given in words; binding and its absence hold for the method and conditions named. For some assays here: In cells and extracts the contact can be indirect. Some results given as binding are weak or reduced against the parent protein; the word gives no strength. For some assays here: Where a sequence is shown, tags or fusion partners need not be part of it.

Amino acid sequences for entries named in this document (tags omitted). Residues count along the entry.
UniProt Q9WV30: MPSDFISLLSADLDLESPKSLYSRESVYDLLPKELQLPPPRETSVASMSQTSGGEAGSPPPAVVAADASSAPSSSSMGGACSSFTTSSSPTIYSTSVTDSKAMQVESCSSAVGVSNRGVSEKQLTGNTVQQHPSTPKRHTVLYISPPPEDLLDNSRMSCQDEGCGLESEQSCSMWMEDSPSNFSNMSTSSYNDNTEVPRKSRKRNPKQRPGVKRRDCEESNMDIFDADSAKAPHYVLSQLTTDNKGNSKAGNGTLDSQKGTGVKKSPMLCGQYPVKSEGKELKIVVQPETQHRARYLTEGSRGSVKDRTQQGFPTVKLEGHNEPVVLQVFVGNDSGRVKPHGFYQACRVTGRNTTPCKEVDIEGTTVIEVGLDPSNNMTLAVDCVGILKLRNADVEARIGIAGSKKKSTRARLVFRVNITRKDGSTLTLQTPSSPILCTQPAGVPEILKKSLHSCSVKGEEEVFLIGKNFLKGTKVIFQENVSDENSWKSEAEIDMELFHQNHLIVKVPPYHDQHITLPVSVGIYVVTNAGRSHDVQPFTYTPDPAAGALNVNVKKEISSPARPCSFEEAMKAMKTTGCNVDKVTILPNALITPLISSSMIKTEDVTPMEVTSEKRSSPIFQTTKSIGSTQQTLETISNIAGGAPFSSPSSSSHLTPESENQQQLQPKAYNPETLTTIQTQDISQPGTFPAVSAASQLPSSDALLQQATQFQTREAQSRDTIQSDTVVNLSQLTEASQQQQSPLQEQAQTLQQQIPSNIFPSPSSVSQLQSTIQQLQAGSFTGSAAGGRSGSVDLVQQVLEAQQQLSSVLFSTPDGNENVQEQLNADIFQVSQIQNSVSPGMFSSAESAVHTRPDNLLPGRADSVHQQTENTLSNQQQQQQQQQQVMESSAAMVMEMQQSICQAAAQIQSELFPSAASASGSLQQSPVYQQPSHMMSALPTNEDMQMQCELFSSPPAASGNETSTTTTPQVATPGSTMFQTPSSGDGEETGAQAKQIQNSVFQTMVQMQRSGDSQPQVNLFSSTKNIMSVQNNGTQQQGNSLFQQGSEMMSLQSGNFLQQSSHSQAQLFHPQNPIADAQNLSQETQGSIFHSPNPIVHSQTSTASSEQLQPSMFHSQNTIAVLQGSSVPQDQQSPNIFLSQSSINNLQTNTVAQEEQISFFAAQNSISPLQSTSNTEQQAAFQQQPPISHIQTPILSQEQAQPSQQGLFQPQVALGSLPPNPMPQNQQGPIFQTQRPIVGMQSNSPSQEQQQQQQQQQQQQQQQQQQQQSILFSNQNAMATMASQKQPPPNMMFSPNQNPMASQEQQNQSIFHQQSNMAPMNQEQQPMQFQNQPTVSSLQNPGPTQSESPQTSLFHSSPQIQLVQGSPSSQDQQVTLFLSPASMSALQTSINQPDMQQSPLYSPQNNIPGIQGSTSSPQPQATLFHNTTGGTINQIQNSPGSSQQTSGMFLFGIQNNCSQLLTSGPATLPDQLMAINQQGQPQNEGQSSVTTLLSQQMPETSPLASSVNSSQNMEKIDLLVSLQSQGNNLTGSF
UniProt P97471: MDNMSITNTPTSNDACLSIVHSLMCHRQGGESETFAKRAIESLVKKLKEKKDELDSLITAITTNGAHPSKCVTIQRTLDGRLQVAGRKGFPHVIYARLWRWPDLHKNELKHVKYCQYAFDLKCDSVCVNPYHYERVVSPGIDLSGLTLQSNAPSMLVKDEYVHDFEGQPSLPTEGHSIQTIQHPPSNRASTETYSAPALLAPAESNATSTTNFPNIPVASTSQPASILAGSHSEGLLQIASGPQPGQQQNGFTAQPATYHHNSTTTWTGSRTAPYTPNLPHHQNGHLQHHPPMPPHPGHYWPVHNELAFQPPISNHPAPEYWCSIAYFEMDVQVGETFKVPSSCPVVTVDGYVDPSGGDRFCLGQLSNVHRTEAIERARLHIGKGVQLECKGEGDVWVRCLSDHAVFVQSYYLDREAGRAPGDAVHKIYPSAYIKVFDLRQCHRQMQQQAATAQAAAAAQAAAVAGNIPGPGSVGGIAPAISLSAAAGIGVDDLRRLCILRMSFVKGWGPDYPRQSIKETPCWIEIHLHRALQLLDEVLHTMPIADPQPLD
UniProt P70210: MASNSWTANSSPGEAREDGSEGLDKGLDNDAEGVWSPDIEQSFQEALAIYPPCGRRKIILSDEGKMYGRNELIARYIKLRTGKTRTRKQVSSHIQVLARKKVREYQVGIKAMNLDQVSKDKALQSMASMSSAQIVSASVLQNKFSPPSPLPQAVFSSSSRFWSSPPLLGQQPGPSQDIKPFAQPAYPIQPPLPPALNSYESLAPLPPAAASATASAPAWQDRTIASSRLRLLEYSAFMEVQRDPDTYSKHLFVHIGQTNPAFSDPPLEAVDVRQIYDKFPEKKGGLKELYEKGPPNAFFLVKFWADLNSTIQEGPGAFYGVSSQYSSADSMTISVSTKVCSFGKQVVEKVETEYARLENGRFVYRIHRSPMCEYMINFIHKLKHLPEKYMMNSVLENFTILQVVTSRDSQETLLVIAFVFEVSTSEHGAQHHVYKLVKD
UniProt Q04206: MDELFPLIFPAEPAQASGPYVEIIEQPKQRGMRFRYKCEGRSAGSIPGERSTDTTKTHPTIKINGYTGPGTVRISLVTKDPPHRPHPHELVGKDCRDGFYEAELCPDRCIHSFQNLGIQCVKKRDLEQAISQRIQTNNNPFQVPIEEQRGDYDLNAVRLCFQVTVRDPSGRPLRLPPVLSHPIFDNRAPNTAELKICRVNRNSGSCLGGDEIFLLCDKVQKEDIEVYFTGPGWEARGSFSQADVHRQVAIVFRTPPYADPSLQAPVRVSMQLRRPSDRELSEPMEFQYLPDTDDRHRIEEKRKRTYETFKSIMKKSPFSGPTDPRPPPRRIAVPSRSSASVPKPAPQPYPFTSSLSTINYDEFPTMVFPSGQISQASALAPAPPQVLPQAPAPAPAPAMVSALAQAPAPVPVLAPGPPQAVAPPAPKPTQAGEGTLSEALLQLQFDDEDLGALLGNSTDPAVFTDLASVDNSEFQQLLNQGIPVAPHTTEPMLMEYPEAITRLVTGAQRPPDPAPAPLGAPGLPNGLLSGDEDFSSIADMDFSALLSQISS
UniProt Q04207, residues 19-304: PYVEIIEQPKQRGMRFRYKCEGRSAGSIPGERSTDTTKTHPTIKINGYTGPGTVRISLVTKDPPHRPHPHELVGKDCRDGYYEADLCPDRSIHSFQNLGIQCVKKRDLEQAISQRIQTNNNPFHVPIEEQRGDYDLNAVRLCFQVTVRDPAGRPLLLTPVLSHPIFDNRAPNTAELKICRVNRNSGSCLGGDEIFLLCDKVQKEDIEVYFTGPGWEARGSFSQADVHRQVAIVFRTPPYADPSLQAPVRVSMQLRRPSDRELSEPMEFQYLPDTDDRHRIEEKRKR
UniProt P25799, residues 1-435: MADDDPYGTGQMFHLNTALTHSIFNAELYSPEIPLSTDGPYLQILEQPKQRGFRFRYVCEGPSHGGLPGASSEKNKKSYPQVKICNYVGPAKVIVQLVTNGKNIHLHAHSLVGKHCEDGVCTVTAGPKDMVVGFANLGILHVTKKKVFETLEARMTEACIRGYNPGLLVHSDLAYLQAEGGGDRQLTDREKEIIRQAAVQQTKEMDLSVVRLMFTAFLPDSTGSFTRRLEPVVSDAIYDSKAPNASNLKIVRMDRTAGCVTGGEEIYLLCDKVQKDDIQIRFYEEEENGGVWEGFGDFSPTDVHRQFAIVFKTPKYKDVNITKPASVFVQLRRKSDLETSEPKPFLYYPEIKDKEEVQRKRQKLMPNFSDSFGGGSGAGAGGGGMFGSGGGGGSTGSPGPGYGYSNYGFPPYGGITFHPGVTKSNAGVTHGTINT

Experiments:
FLAG-tagged Cux1 = target: T1, FLAG-tagged Cux1 (UniProt P53564); assay: co-IP; HEK293T co-transfected with HA-RelA and a FLAG-tagged cofactor for 24 h, mouse TNF-α 30 min; lysis in 25 mM Tris-HCl pH 7.5, 150 mM NaCl, 5% glycerol, 1% NP-40; anti-FLAG M2 agarose 2 h at 4°C; western blot
T1 sequence: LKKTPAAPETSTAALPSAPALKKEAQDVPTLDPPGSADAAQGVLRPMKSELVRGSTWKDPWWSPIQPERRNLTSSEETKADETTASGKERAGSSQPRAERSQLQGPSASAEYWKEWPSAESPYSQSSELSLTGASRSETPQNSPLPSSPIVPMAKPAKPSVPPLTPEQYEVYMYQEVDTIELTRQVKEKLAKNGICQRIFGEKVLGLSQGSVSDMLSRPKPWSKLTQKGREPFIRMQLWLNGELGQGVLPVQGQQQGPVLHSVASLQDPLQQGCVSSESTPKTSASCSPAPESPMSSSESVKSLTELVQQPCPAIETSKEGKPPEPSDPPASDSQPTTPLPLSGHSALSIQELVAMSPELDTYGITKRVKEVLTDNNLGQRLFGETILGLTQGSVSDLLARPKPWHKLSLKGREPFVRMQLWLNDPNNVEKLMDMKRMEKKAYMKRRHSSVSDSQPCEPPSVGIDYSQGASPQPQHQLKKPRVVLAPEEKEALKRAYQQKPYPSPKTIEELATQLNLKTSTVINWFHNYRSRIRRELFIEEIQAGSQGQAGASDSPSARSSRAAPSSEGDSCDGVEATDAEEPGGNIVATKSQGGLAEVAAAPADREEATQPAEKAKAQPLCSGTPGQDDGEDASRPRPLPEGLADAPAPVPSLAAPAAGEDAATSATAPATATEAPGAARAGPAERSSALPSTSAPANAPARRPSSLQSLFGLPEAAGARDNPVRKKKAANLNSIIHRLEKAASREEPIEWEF

FLAG-tagged Nfat5 = FLAG-tagged Nfat5 (UniProt Q9WV30); assay: as above
FLAG-tagged Nfatc1 [1] = target: T2, FLAG-tagged Nfatc1 (UniProt O88942); assay: as above
T2 sequence: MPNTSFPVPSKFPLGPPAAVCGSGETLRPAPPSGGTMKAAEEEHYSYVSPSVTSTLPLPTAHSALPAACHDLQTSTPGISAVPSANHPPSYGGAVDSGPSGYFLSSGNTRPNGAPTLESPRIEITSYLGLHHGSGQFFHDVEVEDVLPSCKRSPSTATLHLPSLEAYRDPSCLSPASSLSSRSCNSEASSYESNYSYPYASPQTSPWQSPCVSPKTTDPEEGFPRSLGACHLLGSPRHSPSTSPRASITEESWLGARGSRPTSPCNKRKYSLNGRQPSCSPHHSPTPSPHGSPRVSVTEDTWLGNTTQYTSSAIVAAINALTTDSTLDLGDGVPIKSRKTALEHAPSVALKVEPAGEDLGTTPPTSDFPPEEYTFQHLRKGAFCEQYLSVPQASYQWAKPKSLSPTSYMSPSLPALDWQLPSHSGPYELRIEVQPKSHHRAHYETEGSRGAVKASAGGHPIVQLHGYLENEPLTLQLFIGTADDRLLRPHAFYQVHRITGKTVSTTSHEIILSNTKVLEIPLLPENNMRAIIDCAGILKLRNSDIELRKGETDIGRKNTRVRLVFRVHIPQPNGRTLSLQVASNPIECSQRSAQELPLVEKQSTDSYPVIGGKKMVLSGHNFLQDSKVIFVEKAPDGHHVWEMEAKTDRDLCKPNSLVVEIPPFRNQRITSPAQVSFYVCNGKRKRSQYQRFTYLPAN

FLAG-tagged Smad4 = FLAG-tagged Smad4 (UniProt P97471); assay: as above
FLAG-tagged Tead3 = FLAG-tagged Tead3 (UniProt P70210); assay: as above
[2] = target: Full-length His-RelA (1-551) (UniProt Q04206); assay: SEC; His-p50 and His-RelA mixed 1:1 at 0.1 mg/mL, 1 h at room temperature, then HiLoad 16/60 Superdex 200 in 25 mM Tris-HCl pH 7.5, 200 mM NaCl, 5% glycerol, 1 mM DTT; both purified
FLAG-tagged Nfatc1 [3] = target: T2, FLAG-tagged Nfatc1; assay: co-IP; FLAG-Nfatc1 pulled down, endogenous RelA detected (Supplementary Fig. S3C)
untagged RelA(19–304) = untagged RelA(19–304) (UniProt Q04207); assay: crystal structure; RelA(19-304) at ~150 micromolar with κB-DNA duplex 1:1.2; hanging drop at 18°C, MES pH 5.5, 14% PEG3350; molecular replacement; both purified

Question: Which results are given for “HA-tagged RelA (from UniProt Q04206 1-551)”?
Answer: binding (FLAG-tagged Cux1): binds weakly; binding (FLAG-tagged Nfat5): binds weakly; binding (FLAG-tagged Nfatc1 [1]): binds weakly; binding (FLAG-tagged Smad4): binds weakly; binding (FLAG-tagged Tead3): binds weakly

Question: Which binding [2] does the source give for “His-tagged p50 (1-435) (from UniProt P25799 1-435) (domain or fragment)” here?
Answer: binds

Question: With “endogenous RelA (from UniProt Q04206 1-551)” as the substance, how does the binding (FLAG-tagged Nfatc1 [3]) read?
Answer: binds

Question: For “untagged RelA(19–304) (from UniProt Q04207 19-304) (domain or fragment)”, which binding (untagged RelA(19–304)) is on record?
Answer: binds
